Results as given in patent US10786483B2, “Tumescent contravenom drug delivery” (HK Pharma, priority 2016, dated 2020).
Values joined by “and” are separate entries in the source; they are usually repeats but may differ in a detail not shown here. Equal entries are not always repeated. Where two headings read alike, the source gives them in different places.

Tests used:
[1] = 14 subjects, 41 procedures
Source text: Heart rates, before, during, and after tumescent infiltration and immediately after liposuction were compared.

[2] = for difference of AUC∞ without versus with liposuction (lidocaine removed by liposuction before absorption): equal doses of tumescent lidocaine; for area under the curve of the serum lidocaine concentration-time profile (AUC∞): one patient-study per line, dose in column Lido (mg/kg), subcutaneous
clinical = conditions: human, serum, subcutaneous; for AUC(0-inf): 45 mg/kg, mean AUC∞ of serum lidocaine concentration-time profile, equal mg/kg dosages (45 mg/kg in FIG. 2)
[3] = tolerance interval analysis, probability that Cmax >=6 μg/mL; set-up: species or system human
Procedure: The choice of the larger Cmax is conservative, in the sense that it increased the estimated probability that any given milligram per kilogram dose would produce a Cmax ≥6 μg/mL.
Tolerance intervals were calculated at a 99% level of confidence.

SMILES: CCN(CC)CC(=O)Nc1c(C)cccc1C [lidocaine]
- clinical evidence of toxicity [1]: no evidence
- difference of AUC∞ without versus with liposuction (lidocaine removed by liposuction before absorption) [2]: approximately 28%
- difference of AUC∞ without versus with liposuction (lidocaine removed by liposuction before absorption) ([2]; listed as tumescent lidocaine): 28%
- area under the curve of the serum lidocaine concentration-time profile (AUC∞) ([2]; with liposuction): 35300 ng·h/mL and 31000 ng·h/mL and 48600 ng·h/mL and 40600 ng·h/mL and 27600 ng·h/mL and 33700 ng·h/mL and 31900 ng·h/mL and 34800 ng·h/mL and 33800 ng·h/mL and 37700 ng·h/mL and 15200 ng·h/mL and 67800 ng·h/mL and 33000 ng·h/mL and 35700 ng·h/mL
- area under the curve of the serum lidocaine concentration-time profile (AUC∞) ([2]; without liposuction): 35000 ng·h/mL and 61500 ng·h/mL and 42000 ng·h/mL and 57900 ng·h/mL and 59000 ng·h/mL and 44500 ng·h/mL and 60500 ng·h/mL and 44400 ng·h/mL and 21000 ng·h/mL and 33400 ng·h/mL and 44300 ng·h/mL and 52700 ng·h/mL and 26000 ng·h/mL and 70300 ng·h/mL and 70800 ng·h/mL and 25600 ng·h/mL and 26900 ng·h/mL and 24200 ng·h/mL and 21800 ng·h/mL and 62000 ng·h/mL and 77400 ng·h/mL and 48300 ng·h/mL and 49600 ng·h/mL and 26500 ng·h/mL and 54500 ng·h/mL and 57700 ng·h/mL and 29400 ng·h/mL
- Cmax (clinical; 35 mg/kg, Cmax, 35 mg/kg without liposuction, first 2 subjects): < 6000 ng/mL
- AUC(0-inf) (clinical; with liposuction): 40700 ng·h/mL
- AUC(0-inf) (clinical; without liposuction): 56200 ng·h/mL
- Cmax (clinical; mean Cmax, with liposuction, equal mg/kg dosages): 2380 ng/mL
- Cmax (clinical; mean Cmax, without liposuction, equal mg/kg dosages): 2900 ng/mL
- Tmax (clinical; mean Tmax, with liposuction): 12.5 h
- Tmax (clinical; mean Tmax, without liposuction): 13.1 h
- Cmax (clinical; range of Cmax, with liposuction): 970 to 3800 ng/mL
- Cmax (clinical; range of Cmax, without liposuction): 1200 to 4400 ng/mL
- Tmax (clinical; range of Tmax, with liposuction): 8 to 18 h
- Tmax (clinical; range of Tmax, without liposuction): 8 to 24 h
- estimated maximum safe dosage ([3]; with liposuction): 45 mg/kg
- estimated maximum safe dosage ([3]; without liposuction): 28 mg/kg
